From publication PMC4591342
Results are given in words; binding and its absence hold for the method and conditions named. Binding seen in cells or lysates may run through a third protein.

By UniProt entry, the sequences of proteins in these tests, tags left out. Residues count along the entry.
UniProt P05804: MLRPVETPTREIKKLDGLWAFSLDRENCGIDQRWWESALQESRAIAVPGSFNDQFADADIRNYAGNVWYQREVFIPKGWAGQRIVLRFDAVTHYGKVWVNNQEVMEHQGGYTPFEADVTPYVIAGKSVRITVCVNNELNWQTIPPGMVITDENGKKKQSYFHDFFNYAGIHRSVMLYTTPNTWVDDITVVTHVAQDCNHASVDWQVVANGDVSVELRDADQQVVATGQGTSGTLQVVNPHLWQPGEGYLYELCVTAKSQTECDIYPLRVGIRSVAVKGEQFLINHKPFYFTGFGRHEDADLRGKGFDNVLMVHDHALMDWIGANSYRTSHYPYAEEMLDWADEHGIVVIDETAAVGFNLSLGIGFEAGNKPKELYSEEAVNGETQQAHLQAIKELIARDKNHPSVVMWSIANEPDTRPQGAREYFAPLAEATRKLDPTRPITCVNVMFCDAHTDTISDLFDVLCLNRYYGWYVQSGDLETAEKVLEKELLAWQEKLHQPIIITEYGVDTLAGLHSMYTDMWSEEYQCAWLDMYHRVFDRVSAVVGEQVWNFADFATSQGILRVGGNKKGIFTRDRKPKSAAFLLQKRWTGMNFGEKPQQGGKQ
UniProt P12419, residues 471-721: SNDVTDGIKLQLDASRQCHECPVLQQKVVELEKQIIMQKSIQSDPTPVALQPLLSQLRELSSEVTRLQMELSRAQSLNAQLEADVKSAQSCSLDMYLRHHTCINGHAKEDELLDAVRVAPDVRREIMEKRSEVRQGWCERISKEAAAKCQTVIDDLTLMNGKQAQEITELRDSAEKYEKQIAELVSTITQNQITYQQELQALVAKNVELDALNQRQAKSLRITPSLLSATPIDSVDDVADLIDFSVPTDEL

Biological target: bacterial β-glucuronidase fused with maltose-binding protein (UniProt P05804)
Assay: pull-down; MBP-XIK GTD or MBP-GUS immobilised on resin; GFP-fused proteins detected before (input) and after pull-down by immunoblot with rabbit polyclonal GFP-specific antibody; done as described in ref. 30

Question: “C-terminal domain of mammalian reovirus non-structural protein μNS fused to GFP (from UniProt P12419-1 471-721) (domain or fragment)” was tested. Which binding did it give?
Answer: The binding was “no binding”.
